In PubChem BioAssay AID1487 (National Center for Advancing Translational Sciences (NCATS), 2009):
Values joined by “and” are separate entries in the source; they are usually repeats but may differ in a detail not shown here. Identical values can stand only once. This is one part of the list. These are further read-outs of the screen, such as a control signal, another cell line or another target. No call is given for them. The list favours compounds with an active or inconclusive main result. Potencies come from curve fits of mixed quality, noted in brackets.

Assay: qHTS Assay for Modulators of Lamin A Splicing
Conditions: HeLa LMNA splicing GFP/RFP minigene ratio, 48 h
In short: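 S3 HeLa stable clones carrying a lamin A-EGFP splicing minigene plus DsRed2 were seeded at 600 cells/well in Opti-MEM with 2% FBS, pin-dosed and incubated 48 h at 37°C. Acumen cytometry (488 nm) gave the GFP/RFP total-intensity ratio.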

[1] = measured here: GFP splicing reporter channel
[2] = measured here: RFP viability control channel

CC1CCCCN1C(=O)c1ccc(NC(=O)c2ccccc2Cl)cc1 (centres undefined)
AC50 [1]: 0.224 µM [falling, full curve]

Cc1ccc(C(=O)NNC2=Nc3cccc4cccc2c34)cc1
AC50 [2]: 7.94 µM [rising, partial curve]

O=C(NNc1nc(-c2ccc(Br)cc2)cs1)c1ccco1
AC50 [2]: 1.26 µM [falling, single point]

COc1ccc(CN2CCn3ncc(C(=O)Nc4ccccc4)c3C2=O)cc1
AC50 [2]: 0.316 µM [falling, full curve, poor fit]

CCOC(=O)C1=C(CN2CCN(c3ccc(F)cc3)CC2)NC(=O)NC1c1cccs1 (centres undefined)
AC50 [1]: 35.5 µM [rising, single point]
AC50 [2]: 14.1 µM [rising, single point]

COc1cc2c(cc1OC)-c1cc3ccc4c(c3c[n+]1CC2)OCO4
AC50 [1]: 6.31 µM [rising, full curve]
AC50 [2]: 10 µM [rising, partial curve]

CCOc1ccc(/C=C2/SC(=O)NC2=S)cc1
AC50 [1]: 35.5 µM [falling, single point]
AC50 [2]: 35.5 µM [falling, single point]

CN(/N=C/c1cccnc1)C1=NS(=O)(=O)c2ccccc21
AC50 [1]: 14.1 µM [falling, partial curve]
AC50 [2]: 7.94 µM [falling, partial curve, poor fit]

CC(=O)Nc1ccc(NC(=O)C2CCN(S(=O)(=O)c3ccc4c(c3)CCCC(=O)N4)CC2)cc1
AC50 [1]: 0.00316 µM [rising, full curve, poor fit]
AC50 [2]: 0.0447 µM [rising, full curve, poor fit]

CCN1CCN(Cc2ccc3c(c2)Cc2ccccc2-3)CC1
AC50 [1]: 10 µM [rising, partial curve]

Cn1nc(CC(=O)NCc2ccc(F)cc2)c2ccccc2c1=O
AC50 [2]: 11.2 µM [rising, partial curve]

O=C(CN1CCN(Cc2ccc(Cl)cc2)CC1)N/N=C/C=C/c1ccccc1[N+](=O)[O-]
AC50 [1]: 10 µM [rising, partial curve]
AC50 [2]: 14.1 µM [rising, partial curve]

COc1ccc(Sc2ncnc3onc(C)c23)cc1
AC50 [1]: 0.00708 µM [falling, full curve, poor fit]

Cc1ccc(-c2nnc(Oc3cccc(C)c3)c3ccccc23)cc1
AC50 [1]: 28.2 µM [falling, single point]
AC50 [2]: 35.5 µM [falling, single point]

CC1OC(Nc2ccc(N=Nc3ccccc3)cc2)C(O)C(O)C1O (centres undefined)
AC50 [1]: 1.58 µM [falling, full curve]

CCOc1ccc(CNC(=O)C(CC)n2nc(C)n3c(cc4occc43)c2=O)cc1OC (centres undefined)
AC50 [2]: 14.1 µM [rising, partial curve, poor fit]

Cc1cccn2c(N)c(-c3ccccc3)nc12
AC50 [1]: 14.1 µM [rising, single point]

NS(=O)(=O)c1cccc(NC(=O)COC(=O)/C(=C/c2cccs2)c2cccs2)c1
AC50 [2]: 22.4 µM [rising, single point]

O=C(C(c1ccccc1)c1ccccc1)N1CCN(Cc2ccc(Br)cc2)CC1
AC50 [2]: 15.8 µM [rising, single point]

COc1ccccc1-c1nnc(SCC(=O)NCc2c(C)c(Cl)cc(C(C)C)c2O)o1
AC50 [2]: 14.1 µM [rising, single point]

Cc1nn(-c2ccccc2)c(Cl)c1CN(C(=O)CCl)c1cccc2ccccc12
AC50 [1]: 35.5 µM [falling, single point]
AC50 [2]: 35.5 µM [falling, single point]

COc1ccc(N2CCc3c(C)nc4c(OC)cccc4c32)cc1
AC50 [2]: 22.4 µM [rising, partial curve, poor fit]

O=S(=O)(c1ccc2c(c1)OCCO2)N1CCC(c2nc3ccc(Cl)cc3[nH]2)CC1
AC50 [2]: 28.2 µM [rising, single point]

Cc1[nH]c2ccccc2c1-c1ccc(Cl)nn1
AC50 [1]: 10 µM [falling, partial curve]
AC50 [2]: 7.08 µM [falling, partial curve]

Cc1cccc2nc(CSc3nc4[nH]ncc4c(=O)n3-c3ccccc3Cl)cc(=O)n12
AC50 [1]: 0.141 µM [rising, full curve, poor fit]
AC50 [2]: 31.6 µM [rising, single point]

CC(C(=O)N1c2ccccc2CCc2ccccc21)n1nnc(-c2ccc(N(C)C)cc2)n1 (centres undefined)
AC50 [2]: 11.2 µM [rising, partial curve, poor fit]

CCOC(=O)[C@H](CCc1ccccc1)N[C@@H](C)C(=O)N1CCC[C@H]1C(=O)O
AC50 [1]: 0.00316 µM [falling, full curve, poor fit]
AC50 [2]: 3.16 µM [falling, single point] and 22.4 nM [falling, full curve, poor fit]

CCn1c(=O)cc(SCC(=O)NCc2ccc(Cl)cc2)c2ccccc21
AC50 [2]: 12.6 µM [rising, partial curve, poor fit]

CCC(c1nnnn1C1CCCC1)N1CCN(c2cccc(OC)c2)CC1 (centres undefined)
AC50 [1]: 4.47 µM [falling, full curve, poor fit]

COc1ccccc1CCC(=O)Nc1nc2ccccc2[nH]1
AC50 [2]: 35.5 µM [rising, single point]

O=C(c1ccc(S(=O)(=O)N2CCCCC2)cc1)N1CCN(Cc2ccc3c(c2)OCO3)CC1
AC50 [1]: 6.31 µM [rising, full curve, poor fit]
AC50 [2]: 12.6 µM [rising, partial curve]

C=CCc1cccc([C@@H]2[C@@H](C)CC[C@H]3C(=O)N4[C@@H](c5cc(OC)c(OC)c(OC)c5)c5[nH]c6ccccc6c5C[C@H]4C(=O)N23)c1
AC50 [1]: 35.5 µM [falling, single point]
AC50 [2]: 35.5 µM [falling, single point]

Cc1c(O)nc(SCC(=O)Nc2ccc3c4c(cccc24)CC3)n(-c2ccccc2)c1=O
AC50 [1]: 14.1 µM [rising, partial curve]
AC50 [2]: 22.4 µM [rising, partial curve, poor fit]

COc1ccc(CCN(C)c2ncnc3sccc23)cc1OC
AC50 [2]: 12.6 µM [rising, single point]

COc1ccc(S(=O)(=O)Nc2ccc(F)c(F)c2)cc1Cl
AC50 [2]: 11.2 µM [rising, partial curve]

Cc1ccccc1-c1nc(CN2CCC(C(=O)NCC3CCCO3)CC2)c(C)o1 (centres undefined)
AC50 [1]: 14.1 µM [rising, single point]

CC1CCN(S(=O)(=O)c2ccc3c(ccc(=O)n3CC(=O)NCc3ccccc3Cl)c2)CC1
AC50 [1]: 35.5 µM [falling, single point]
AC50 [2]: 35.5 µM [falling, single point]

CC(=O)c1c(C)nc2sc3c(=N)n(N)cnc3c2c1-c1ccc(Cl)cc1
AC50 [2]: 3.16 µM [rising, single point]

O=C(Cn1cnc2c(nnn2-c2ccc(F)cc2)c1=O)N1CCCc2ccccc21
AC50 [1]: 15.8 µM [rising, single point]

Cc1ccc(Cl)cc1N1CCN(c2cccc[n+]2C)CC1
AC50 [2]: 11.2 µM [rising, partial curve, poor fit]

CCOC(=O)c1[nH]c(C)c(CCC(=O)Nc2ccccc2C(=O)OC)c1C
AC50 [2]: 3.55 µM [rising, partial curve, poor fit]

Cc1ccc(C2CCN(C(=O)Nc3ccc(Cl)c(Cl)c3)C2)cc1 (centres undefined)
AC50 [2]: 15.8 µM [rising, single point]

O=C1NC(=O)/C(=C\c2ccccc2Oc2ccc(F)c(F)c2)S1
AC50 [1]: 11.2 µM [rising, partial curve]
AC50 [2]: 12.6 µM [rising, partial curve]

Cc1ccc2c(nc3s/c(=C/c4cccs4)c(=O)n32)c1C
AC50 [2]: 35.5 µM [rising, single point]

NS(=O)(=O)c1ccc(NCc2cc(Cl)ccc2OCc2ccc(F)cc2)cc1
AC50 [2]: 12.6 µM [rising, partial curve]

O=C(CCS(=O)(=O)c1ccc(Br)s1)N1CCc2ccccc21
AC50 [2]: 35.5 µM [rising, single point]

C=CCOc1cccc(/C=N/NC(=O)CN(c2cc(Cl)ccc2OC)S(=O)(=O)c2ccc(C)c([N+](=O)[O-])c2)c1
AC50 [2]: 12.6 µM [rising, partial curve]

Cc1cccc(CSc2nc(=O)c3c(n2C)NC(=O)CC3c2cc(F)cc(F)c2)c1 (centres undefined)
AC50 [2]: 15.8 µM [rising, single point]

O=C(Nc1ccc(N2CCOCC2)cc1)c1ccc(-c2ccccc2[N+](=O)[O-])o1
AC50 [1]: 15.8 µM [falling, single point]
AC50 [2]: 6.31 µM [falling, partial curve]

COc1ccc(OC)c(C(=O)COC(=O)c2ccccc2O)c1
AC50 [1]: 11.2 µM [rising, single point]

CCOC(=O)/C(=C\c1ccc(C)cc1)NC(=O)c1ccccc1
AC50 [2]: 35.5 µM [rising, single point]

Cc1ccccc1C(=O)NC(=S)NC1CCSC1=O (centres undefined)
AC50 [1]: 1.26 µM [rising, partial curve, poor fit]
AC50 [2]: 17.8 µM [rising, single point]

Cc1ccc(C2CC(=O)C=C(Nc3ccc(Cl)cc3)C2)cc1 (centres undefined)
AC50 [2]: 14.1 µM [rising, partial curve, poor fit]

COc1ccc(Cc2nn3c(-c4cc(OC)c(OC)c(OC)c4)nnc3s2)cc1
AC50 [2]: 31.6 µM [rising, single point]

O=C(COc1ccc(/C=N/NC(=O)c2cc3ccccc3o2)cc1Br)Nc1ccccc1
AC50 [1]: 3.55 µM [falling, full curve]
AC50 [2]: 4.47 µM [falling, full curve]
